Assay results published in the supplement of paper PMC3334620.
Whole data set: some 33,000 sequences, median “E-score (-0.5 to 0.5)” near -0.015, cut for the highest 2% near 0.3. Some of the results follow.

Biological target: T1, Abf1 (UniProt P14164)
T1 sequence: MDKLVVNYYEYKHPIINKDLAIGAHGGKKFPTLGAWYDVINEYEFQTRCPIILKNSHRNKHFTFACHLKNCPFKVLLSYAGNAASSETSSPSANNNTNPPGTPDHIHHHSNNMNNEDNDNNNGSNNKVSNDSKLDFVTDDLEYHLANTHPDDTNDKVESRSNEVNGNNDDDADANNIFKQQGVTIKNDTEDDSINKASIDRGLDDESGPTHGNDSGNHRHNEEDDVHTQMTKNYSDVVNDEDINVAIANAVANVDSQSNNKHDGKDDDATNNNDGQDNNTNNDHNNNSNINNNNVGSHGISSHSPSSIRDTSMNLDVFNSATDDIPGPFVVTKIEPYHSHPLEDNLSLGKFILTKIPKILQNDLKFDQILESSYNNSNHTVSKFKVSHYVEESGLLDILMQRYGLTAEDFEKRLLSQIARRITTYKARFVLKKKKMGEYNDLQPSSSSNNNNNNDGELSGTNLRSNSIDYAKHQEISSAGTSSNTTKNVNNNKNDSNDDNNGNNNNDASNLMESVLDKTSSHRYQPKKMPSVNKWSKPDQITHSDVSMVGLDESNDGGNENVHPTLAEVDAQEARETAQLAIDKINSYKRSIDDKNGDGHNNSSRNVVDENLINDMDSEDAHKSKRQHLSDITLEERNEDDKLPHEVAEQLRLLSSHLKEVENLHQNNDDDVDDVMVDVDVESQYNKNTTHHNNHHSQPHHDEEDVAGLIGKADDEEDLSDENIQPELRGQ
Experiment: PBM E-score (8-mer binding enrichment) (E-score (-0.5 to 0.5)); higher = stronger / more preferred TF binding
Settings: protein concentration: 200 nM; construct: GST-full length
Outline: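 Each ungapped eight-base word and its reverse complement, pooled, received an E-score from the Universal PBM Analysis Suite. Underlying scans, normalised with masliner, recorded fluorescent anti-GST bound to GST-tagged yeast transcription factors. These were applied at about 100-200 nM to universal all-10-mer Agilent arrays double-stranded by primer extension.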

| Sequence | PBM E-score |
| --- | --- |
| TCACGGGA | 0.263 |
| CCCGTCAG | -0.173 |
| AACTGTGA | 0.0999 |
| GGAAAGTA | 0.102 |
| ACCCCTCA | -0.291 |
| CACGACTG | 0.222 |
| CCTACGGC | 0.226 |
| TCGCGGCA | 0.239 |
| GATCATAA | 0.215 |
| AGTCCTAC | -0.047 |
| AAACATAC | -0.0274 |
| CATTAATC | 0.212 |
| AGGACCAT | -0.0408 |
| GGAGGTCA | 0.0571 |
| ATGCGATC | 0.0608 |
| AGGTTGCG | -0.158 |
| TACGGTCA | 0.196 |
| CGAGCTAC | -0.0169 |
| ACCGTTGC | 0.0812 |
| CCCAAATA | 0.00823 |
| GAAGACCC | -0.253 |
| TAAATGGA | 0.0566 |
| ATGTCAAG | -0.0386 |
| AAATAGGC | 0.00611 |
| AGTATGGG | -0.169 |

| Sequence | PBM E-score |
| --- | --- |
| CTAATAGC | 0.137 |
| CATAAGAA | 0.202 |
| GGAGCCTA | -0.064 |
| AAGTGCGC | -0.0287 |
| GTATAAAC | 0.22 |
| GAGGCGCA | -0.152 |
| ATGAAAGG | -0.082 |
| GCGAACCA | -0.00083 |
| CCACGCAG | -0.0309 |
| CGACTCCC | 0.00827 |
| ACCATACT | -0.0562 |
| TAAGAAGA | 0.219 |
| ATACCGAT | -0.0929 |
| AAAGATGC | 0.141 |
| AATTATAA | 0.139 |
| TACCTTGA | 0.12 |
| AACAGCTT | -0.13 |
| ATCGCGCC | -0.0162 |
| GGAGTAAA | 0.17 |
| CGGAGCGA | 0.174 |
| AACCATAT | 0.0432 |
| GGTTAGGA | -0.107 |
| GCCAAGAA | -0.0222 |
| TCTCAAAA | 0.0551 |
| CAAGTGGC | -0.217 |

| Sequence | PBM E-score |
| --- | --- |
| CGGCTCCC | -0.163 |
| CGCGCTTC | -0.0759 |
| CACCTGAC | 0.0764 |
| ATAAGCTG | -0.127 |
| ATTCGGGG | -0.057 |
| TAGACATA | 0.0778 |
| AGACTCAT | -0.0329 |
| ACTCAGAG | -0.158 |
| AGGGTACT | -0.197 |
| ATCCAGCG | 0.0305 |
| CTAGTATA | 0.0664 |
| ACGAACCT | 0.146 |
| ATTCGGAA | 0.0588 |
| CGCACAAA | 0.0122 |
| GCACCGTA | 0.0841 |
| GGTGCGGA | -0.0586 |
| GCCTTACC | -0.255 |
| AACTACAA | 0.106 |
| AGTTCCGG | -0.087 |
| AATGATGT | 0.325 |
| GAAGCCTC | -0.104 |
| TGAGTCCA | -0.00076 |
| CCTACTGA | -0.18 |
| ACACGGAG | 0.0978 |
| CTCTTTCC | -0.418 |

A few values from above:
Under PBM E-score, ACTCAGAG is listed with -0.158
Under PBM E-score, CACCTGAC is listed with 0.0764
Under PBM E-score, AATGATGT is listed with 0.325

Continued.

| Sequence | PBM E-score |
| --- | --- |
| CAGACAAC | -0.0277 |
| ATGTAACC | -0.0595 |
| ACTCGGTG | -0.0947 |
| TGTCAACA | -0.00868 |
| AAACTTGG | -0.183 |
| ATAGCCTC | -0.153 |
| GGTCCCGA | -0.219 |
| CGCGCTAC | 0.103 |
| GCCGGATA | 0.0738 |
| GGGTTTCA | -0.0251 |
| CGGGTGTC | -0.0118 |
| AGCGCCTA | -0.0277 |
| CAGCTTTA | -0.0823 |
| AAGACTCC | -0.0731 |
| ACTAGCCA | -0.0202 |
| GAAGTACA | -0.0069 |
| CACGCTAC | 0.113 |
| AAAGGAGC | -0.183 |
| CCAGCTAC | -0.0737 |
| CGATCGCC | 0.159 |
| AACGTCCC | -0.0713 |
| TAAGCCCA | -0.0666 |
| AAGGGTCC | -0.167 |
| CTATTACA | 0.0236 |
| GTGGACAA | 0.133 |

| Sequence | PBM E-score |
| --- | --- |
| CGAGTGTC | 0.137 |
| GAACCTCA | 0.0925 |
| GGGTCGGA | -0.151 |
| ACTGGTGG | -0.204 |
| GAACTCTC | -0.211 |
| AATACGGT | 0.194 |
| GGGTGGGA | -0.108 |
| AGAAGGCG | -0.119 |
| CTGGATCC | -0.167 |
| GATCCTTA | -0.173 |
| ATTACTTG | -0.0697 |
| ATGCGCTG | 0.0463 |
| CACCAAAC | -0.0311 |
| ACACGCAT | -0.101 |
| CTGTGACC | -0.186 |
| GCGCCTAC | -0.0694 |
| CCGCCGTA | 0.0615 |
| GAGGAACA | -0.095 |
| CCCCCCAA | -0.369 |
| CCCGTGGA | 0.0795 |
| TAGCAAAA | 0.184 |
| GTGACCAC | 0.175 |
| CTACCATA | -0.0865 |
| CCTAGACC | 0.0667 |
| AACCAGGA | -0.174 |

| Sequence | PBM E-score |
| --- | --- |
| CGCCACGC | -0.0822 |
| CTATAGAG | -0.032 |
| CCTTGGTC | -0.302 |
| AAAAGCTC | 0.0831 |
| CGTGTAAA | 0.314 |
| AATCTTTA | -0.0233 |
| CCCGGTAA | -0.314 |
| ACTACTAA | -0.0373 |
| AAATTCGT | 0.328 |
| AACTCTAT | -0.096 |
| TCCCTGAA | 0.0662 |
| CTAGTCTA | -0.1 |
| ACCAGTTG | -0.0421 |
| ACTTGACT | -0.163 |
| CGCTCCTA | 0.0474 |
| CAATATGC | -0.0289 |
| AGGTTTTA | -0.193 |
| ATCGCGTC | 0.137 |
| AGTGCACG | 0.177 |
| CGCCGCAA | 0.00435 |
| CGATTGCC | 0.116 |
| AAGTGTAT | -0.092 |
| CTCGATAC | 0.0718 |
| AGCAAAAG | 0.0407 |
| CCTAGAAA | -0.0382 |

2 entries from above, as tab-separated lines.
Sequence	PBM E-score
GGAAAGTA	0.102
ACCCCTCA	-0.291

The listing continues:

| Sequence | PBM E-score |
| --- | --- |
| CGCAGGAA | -0.0252 |
| TACTTAAA | -0.11 |
| CCTATCAA | -0.0176 |
| CAGCGGCG | -0.151 |
| CAGGATGA | 0.197 |
| AACGCTGA | 0.0266 |
| TGTAAAAA | -0.0577 |
| GAACGGCC | 0.0506 |
| ATCGGAGA | -0.233 |
| ATGCGTTC | 0.0986 |
| AACTAGCT | 0.0558 |
| AAACAGGG | -0.0823 |
| AAGTCCTA | -0.0851 |
| ACCCCGAA | -0.128 |
| AAAGACGC | -0.101 |
| ACGCTTGC | -0.174 |
| AATCTGTC | -0.00601 |
| GTGAACAA | -0.043 |
| ACGATACA | 0.129 |
| ACTACCCC | -0.276 |
| AGTGCTAG | -0.0973 |
| TATCTCCA | 0.0417 |
